PubChem BioAssay AID1671195, Yale University, 2021

Screen: 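Regulators of LDL receptor activity judged by labelled LDL uptake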 (primary screen)
Cells: human Huh7 hepatoma cells
Knock-down reagent: siRNA pool against human genes, 18 nM
Time to read-out: about 2 to 2.5 days of knockdown, then 8 h LDL uptake
Treatment: DiI-labelled LDL at 30 µg/ml for 8 h, in lipoprotein-deficient serum medium
Detection: 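Per-cell DiI-LDL intensity by automated imaging; well means scaled to the plate median and given as a robust z-score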
Reading the numbers: robust z-score: higher = more LDL uptake after knockdown
Rule for the call: 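a gene counts as active if at least two replicate z-scores exceed ±2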
Here is one part, drawn at random, of about 22,000 deposited reagents. About 1,510 of them (6.9%) count as active. 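Active includes knockdowns raising or lowering LDL uptake; positive z-scores mean more uptake, negative mean less.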 A number with no mark means an inactive call. No sequences are given here.

| gene knocked down | robust z-score, replicate 1 | robust z-score, replicate 2 | robust z-score, replicate 3 |
| --- | --- | --- | --- |
| GBE1 | 1.45 | 0.932 | 1.6 |
| ZNF100 | -0.59 | -0.848 | -0.701 |
| ROBO4 | 0.67 | -0.602 | -0.465 |
| GDF3 | -0.427 | 0.338 | -0.0594 |
| CCDC134 | 2.24 (active) | 2.54 | 2.81 |
| DLX1 | 0.274 | 1.38 | 1.64 |
| CDK17 | -1.06 | -0.986 | -1.35 |
| MOB1B | 1.3 | 0.0613 | -0.603 |
| FCRLA | -0.305 | -0.699 | -0.55 |
| MEST | -0.601 | -0.216 | -0.216 |
| TDP2 | 0.141 | -0.407 | -0.121 |
| CYP2A7 | -1.19 | -1.13 | -1.34 |
| FAM149B1P1 | -0.0946 | 0.436 | -0.122 |
| TNK2 | 0.343 | -0.356 | -0.0543 |
| DICER1-AS1 | -1.49 | -0.874 | -0.679 |
| LOC440516 (retired record) | -0.226 | -0.136 | -0.287 |
| B4GALT7 | -2.03 | 0.00339 | -1.81 |
| MIDN | -0.753 | -0.496 | -0.318 |
| LRTOMT | -0.475 | -0.259 | -0.237 |
| EPHA4 | 0.571 | 1.25 | 0.959 |
| SLC16A8 | -1.41 | -1.26 | -1.33 |
| RNF32 | -0.837 | 0.106 | -0.192 |
| LINC00640 | -0.586 | -0.0715 | -0.444 |
| VEGFD | 0.904 | 1.28 | -0.621 |
| NPAS4 | 3.55 (active) | 3.59 | 3.3 |
| LOC389441 (retired record) | 2.48 (active) | 2.94 | 2.69 |
| FRMD1 | -0.686 | -1.56 | -0.955 |
| VEGFA | 0.284 | -0.876 | -1.23 |
| CDK5 | 0.486 | 0.717 | 0.444 |
| PLA2G1B | -0.923 | -0.808 | -0.964 |
| USP46 | -0.432 | -0.551 | -0.445 |
| ALX4 | -0.275 | -0.95 | -0.37 |
| NPIPB4 | 2.51 (active) | 2.44 | 2.38 |
| KIF14 | -0.805 | -0.0452 | 0.0959 |
| IK | 4.3 (active) | 4.23 | 4.05 |
| LGSN | -0.618 | -0.605 | -0.388 |
| LOC392554 (retired record) | 0.441 | 1.38 | 1.19 |
| MT4 | 1.83 | 1.54 | 2.04 |
| ATF6 | -0.591 | -0.795 | -0.398 |
| TGM4 | -0.5 | -0.107 | 0.225 |
| BCL6 | -0.788 | -0.63 | -0.471 |
| CHGB | -1.05 | -1.02 | -0.518 |
| LOC389153 (retired record) | 0.234 | 0.395 | 0.164 |
| C1orf53 | 0.503 | 0.318 | -0.126 |
| ZNF773 | -0.0826 | 0.0536 | 0.00913 |
| CAND1 | 0.285 | 0.517 | 0.935 |
| OR5C1 | 0.841 | 1.56 | 1.71 |
| ST20 | -1.32 | -0.952 | -0.933 |
| ESCO2 | 0.272 | 0.022 | 0.839 |
| ARSG | -0.445 | -0.616 | -0.323 |
| PTPRVP | -0.00249 | 0.73 | 0.215 |
| POP5 | -0.615 | -0.369 | -0.671 |
| BNIP3L | 0.0823 | 0.756 | 1.64 |
| C1orf94 | 0.239 | -0.067 | 0.182 |
| PITPNM1 | 1.07 | 0.216 | 0.0869 |
| DMAC1 | -1.16 | -1.05 | -0.637 |
| LGALS7 | -2.03 | -1.39 | -1.79 |
| SCML1 | -1.26 | -1.55 | -1.62 |
| SLC32A1 | 0.858 | 0.0717 | 1.2 |
| H1-0 | 0.443 | 1.2 | 0.721 |
| GNAZ | 0.248 | 0.122 | 0.683 |
| RNF4 | -1.59 | -1.59 | -1.75 |
| PROKR2 | 1.3 | 0.418 | 0.226 |
| ULBP3 | -0.564 | -1.16 | -0.299 |
| SEPHS1P7 | -0.347 | -1.49 | -1.56 |
| KMT5A | -1.2 | -1.62 | -1.44 |
| NUDT14 | -1.6 | -1.5 | -1.51 |
| LOC441316 (retired record) | -0.36 | 0.199 | 1.06 |

Entries listed so far marked active:
| gene knocked down | robust z-score, replicate 1 | robust z-score, replicate 2 | robust z-score, replicate 3 |
| --- | --- | --- | --- |
| CCDC134 | 2.24 (active) | 2.54 | 2.81 |
| NPAS4 | 3.55 (active) | 3.59 | 3.3 |
| LOC389441 (retired record) | 2.48 (active) | 2.94 | 2.69 |
| NPIPB4 | 2.51 (active) | 2.44 | 2.38 |
| IK | 4.3 (active) | 4.23 | 4.05 |
